# According to PubChem BioAssay (EPA / NIEHS):
# Amino acid sequences for entries named in this document (tags omitted). A change or cut given only in a name is not applied to a line headed by its entry.
# UniProt P37231: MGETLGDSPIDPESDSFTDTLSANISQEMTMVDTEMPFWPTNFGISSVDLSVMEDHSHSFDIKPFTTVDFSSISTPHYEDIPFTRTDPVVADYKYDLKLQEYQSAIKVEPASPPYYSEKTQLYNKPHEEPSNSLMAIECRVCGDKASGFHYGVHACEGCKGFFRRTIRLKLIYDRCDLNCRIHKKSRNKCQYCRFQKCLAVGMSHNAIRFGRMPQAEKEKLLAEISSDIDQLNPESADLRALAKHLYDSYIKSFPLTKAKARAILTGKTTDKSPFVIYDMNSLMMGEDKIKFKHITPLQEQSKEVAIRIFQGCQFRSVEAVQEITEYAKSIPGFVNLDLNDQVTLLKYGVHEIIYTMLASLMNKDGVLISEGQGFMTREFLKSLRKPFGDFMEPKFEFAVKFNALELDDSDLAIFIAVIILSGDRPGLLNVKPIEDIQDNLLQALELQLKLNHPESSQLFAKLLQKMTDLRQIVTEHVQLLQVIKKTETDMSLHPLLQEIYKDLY
# UniProt P19793: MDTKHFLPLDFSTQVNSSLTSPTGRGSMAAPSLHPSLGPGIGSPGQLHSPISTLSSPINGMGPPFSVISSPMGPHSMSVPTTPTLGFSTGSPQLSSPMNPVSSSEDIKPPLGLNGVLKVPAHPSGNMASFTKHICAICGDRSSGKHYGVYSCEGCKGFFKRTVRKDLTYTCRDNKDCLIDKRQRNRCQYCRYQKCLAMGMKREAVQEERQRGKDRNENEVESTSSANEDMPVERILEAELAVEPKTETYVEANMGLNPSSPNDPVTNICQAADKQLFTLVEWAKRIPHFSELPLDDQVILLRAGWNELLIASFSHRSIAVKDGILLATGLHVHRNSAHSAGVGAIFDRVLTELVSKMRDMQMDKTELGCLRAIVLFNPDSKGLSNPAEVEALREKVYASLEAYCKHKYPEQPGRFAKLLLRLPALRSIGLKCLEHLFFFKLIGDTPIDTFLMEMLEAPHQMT
# UniProt P28702: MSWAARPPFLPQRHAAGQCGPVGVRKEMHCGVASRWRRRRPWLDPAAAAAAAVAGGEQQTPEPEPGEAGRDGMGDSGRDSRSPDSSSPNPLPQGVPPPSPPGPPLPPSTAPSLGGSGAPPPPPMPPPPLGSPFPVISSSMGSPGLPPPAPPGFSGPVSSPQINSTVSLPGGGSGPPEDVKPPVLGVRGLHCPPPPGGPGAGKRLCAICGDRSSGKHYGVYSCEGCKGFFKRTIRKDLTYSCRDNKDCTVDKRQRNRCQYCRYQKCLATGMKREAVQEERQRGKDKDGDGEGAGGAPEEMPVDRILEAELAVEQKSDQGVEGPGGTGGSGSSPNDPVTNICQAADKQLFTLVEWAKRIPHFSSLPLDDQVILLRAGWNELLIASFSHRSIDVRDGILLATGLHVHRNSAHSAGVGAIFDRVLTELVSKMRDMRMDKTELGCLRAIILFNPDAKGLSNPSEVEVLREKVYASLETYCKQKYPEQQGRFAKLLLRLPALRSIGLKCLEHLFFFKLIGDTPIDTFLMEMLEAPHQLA
# UniProt P10827: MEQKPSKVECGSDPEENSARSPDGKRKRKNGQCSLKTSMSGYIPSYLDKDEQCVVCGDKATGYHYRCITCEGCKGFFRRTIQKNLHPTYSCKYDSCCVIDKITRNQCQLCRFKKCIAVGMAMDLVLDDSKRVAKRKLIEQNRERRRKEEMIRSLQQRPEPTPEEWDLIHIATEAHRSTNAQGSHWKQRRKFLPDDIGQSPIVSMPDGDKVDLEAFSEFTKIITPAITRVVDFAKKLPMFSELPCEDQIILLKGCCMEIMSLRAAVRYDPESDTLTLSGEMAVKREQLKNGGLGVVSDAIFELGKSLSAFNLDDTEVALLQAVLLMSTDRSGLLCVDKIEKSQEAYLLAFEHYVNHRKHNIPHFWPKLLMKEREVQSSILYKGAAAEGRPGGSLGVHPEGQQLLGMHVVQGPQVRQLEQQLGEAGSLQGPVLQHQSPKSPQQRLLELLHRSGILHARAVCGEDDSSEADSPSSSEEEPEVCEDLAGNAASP
# UniProt P11473: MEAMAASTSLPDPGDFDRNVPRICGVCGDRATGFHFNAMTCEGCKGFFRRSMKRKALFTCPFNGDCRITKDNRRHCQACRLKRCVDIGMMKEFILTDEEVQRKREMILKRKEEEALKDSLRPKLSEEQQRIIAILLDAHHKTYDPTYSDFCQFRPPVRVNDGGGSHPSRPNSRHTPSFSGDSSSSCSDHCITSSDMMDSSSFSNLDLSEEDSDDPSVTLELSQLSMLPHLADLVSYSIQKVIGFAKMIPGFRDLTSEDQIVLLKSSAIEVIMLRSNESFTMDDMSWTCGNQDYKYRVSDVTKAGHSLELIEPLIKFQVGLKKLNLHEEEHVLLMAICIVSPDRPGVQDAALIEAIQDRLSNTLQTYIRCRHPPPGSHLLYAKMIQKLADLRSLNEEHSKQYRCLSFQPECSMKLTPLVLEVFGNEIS
# UniProt O75469: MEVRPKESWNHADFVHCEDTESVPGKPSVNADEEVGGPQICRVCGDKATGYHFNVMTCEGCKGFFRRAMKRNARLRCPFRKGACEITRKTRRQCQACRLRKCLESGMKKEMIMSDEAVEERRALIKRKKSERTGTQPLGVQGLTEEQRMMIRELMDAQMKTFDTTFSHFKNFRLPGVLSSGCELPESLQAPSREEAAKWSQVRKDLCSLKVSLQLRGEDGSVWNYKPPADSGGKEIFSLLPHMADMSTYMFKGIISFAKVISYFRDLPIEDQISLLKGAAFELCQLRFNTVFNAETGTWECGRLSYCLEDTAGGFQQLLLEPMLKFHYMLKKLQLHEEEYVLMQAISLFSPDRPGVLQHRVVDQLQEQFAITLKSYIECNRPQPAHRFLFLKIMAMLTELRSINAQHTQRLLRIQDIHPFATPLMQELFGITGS
# UniProt P13631, whole entry, looked up: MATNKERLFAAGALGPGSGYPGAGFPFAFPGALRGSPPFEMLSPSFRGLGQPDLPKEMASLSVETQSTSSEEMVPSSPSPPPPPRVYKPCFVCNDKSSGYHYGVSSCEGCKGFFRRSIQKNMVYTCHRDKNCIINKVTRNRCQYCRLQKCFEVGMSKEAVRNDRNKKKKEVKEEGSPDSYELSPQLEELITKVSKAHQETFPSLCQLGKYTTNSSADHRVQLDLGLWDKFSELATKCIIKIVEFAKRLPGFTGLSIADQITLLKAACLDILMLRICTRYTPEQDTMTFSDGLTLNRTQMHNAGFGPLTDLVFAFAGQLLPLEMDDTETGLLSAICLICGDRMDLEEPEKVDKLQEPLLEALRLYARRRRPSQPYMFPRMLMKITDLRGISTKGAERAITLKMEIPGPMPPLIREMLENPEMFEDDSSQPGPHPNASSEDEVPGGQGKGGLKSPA
# UniProt Q92753: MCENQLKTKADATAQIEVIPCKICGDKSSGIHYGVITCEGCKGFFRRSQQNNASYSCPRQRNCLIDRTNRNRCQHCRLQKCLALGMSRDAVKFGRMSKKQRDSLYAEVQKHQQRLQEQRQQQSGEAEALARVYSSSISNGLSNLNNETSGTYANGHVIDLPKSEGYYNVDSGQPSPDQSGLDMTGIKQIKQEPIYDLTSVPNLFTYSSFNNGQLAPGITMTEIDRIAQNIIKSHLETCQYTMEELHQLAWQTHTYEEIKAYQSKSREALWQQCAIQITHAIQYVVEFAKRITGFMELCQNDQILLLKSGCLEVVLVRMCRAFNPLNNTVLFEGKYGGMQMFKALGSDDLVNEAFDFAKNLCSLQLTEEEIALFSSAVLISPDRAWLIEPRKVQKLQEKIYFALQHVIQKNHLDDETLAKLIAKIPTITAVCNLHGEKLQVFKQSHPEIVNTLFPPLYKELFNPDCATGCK
# UniProt P51449: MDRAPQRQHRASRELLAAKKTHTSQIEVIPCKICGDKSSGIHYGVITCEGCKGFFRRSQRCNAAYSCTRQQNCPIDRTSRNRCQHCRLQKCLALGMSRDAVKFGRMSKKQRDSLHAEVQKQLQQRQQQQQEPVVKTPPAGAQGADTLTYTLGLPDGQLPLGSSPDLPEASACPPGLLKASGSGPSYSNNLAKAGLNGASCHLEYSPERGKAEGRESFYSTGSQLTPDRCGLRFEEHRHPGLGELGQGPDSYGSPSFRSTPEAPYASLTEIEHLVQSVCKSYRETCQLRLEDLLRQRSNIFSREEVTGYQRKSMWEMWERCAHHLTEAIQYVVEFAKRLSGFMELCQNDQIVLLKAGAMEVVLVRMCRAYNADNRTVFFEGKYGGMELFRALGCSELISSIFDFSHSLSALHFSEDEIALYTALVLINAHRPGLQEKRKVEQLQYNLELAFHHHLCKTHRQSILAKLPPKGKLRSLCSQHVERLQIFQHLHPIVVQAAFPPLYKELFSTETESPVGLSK
# Where “and” joins values, the source holds several entries; their conditions need not be identical. Identical values can stand only once. The inconclusive results got no clear call from the source; some entries with a clear call stand among them for comparison. Potencies beside an inconclusive call are fits to weak or partial responses and may not hold up. A structure can be active in one record and inactive in another. Calls of active or inactive are those of the source. Rule for the calls: active = hit-call score of the fitted dose curve at least 0.9, where 1 is the maximum; inconclusive = response in the unintended direction; inactive = score below 0.9.
# Assays:
# [1] = target: Peroxisome proliferator-activated receptor gamma (Homo sapiens) (UniProt P37231); experiment: ATG_PPARg_TRANS: Attagene TRANS-FACTORIAL HepG2 Assay for human Peroxisome Proliferator-activated Receptor-gamma (PPARg) (AID 2283007)
# Summary of the method: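 Multiplexed reporter transcription units in HepG2, 24 h dosing, reporter transcripts quantified by fluorescent RT-PCR and capillary electrophoresis. Increase over DMSO scored.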
# [2] = target: Retinoic acid receptor RXR-alpha (Homo sapiens) (UniProt P19793); experiment: ATG_RXRa_TRANS: Attagene TRANS-FACTORIAL HepG2 Assay for human Retinoid X Receptor alpha (RXRa) (AID 2283012)
# Summary of the method: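 Transient transfection of human HepG2 with multiple GAL4-UAS reporter constructs; 24 h compound exposure; total RNA isolated, reverse-transcribed, PCR-amplified, 6-FAM labelled, HpaI-cut, resolved by capillary electrophoresis. Positive-direction fit versus DMSO.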
# [3] = target: human Retinoid X Receptor beta (RXRb), RXRB (gene 6257) (UniProt P28702); experiment: ATG_RXRb_TRANS: Attagene TRANS-FACTORIAL HepG2 Assay for human Retinoid X Receptor beta (RXRb) (AID 2283013)
# Summary of the method: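 Transfect HepG2 with GAL4-UAS multi-reporter constructs (chimeric NR-Gal4, TRANS format); dose compound 24 h; isolate RNA, RT-PCR, FAM primer extension, HpaI digest; quantify by capillary electrophoresis; positive direction vs DMSO.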
# [4] = target: human Thyroid Receptor alpha (THRa1), THRA (gene 7067) (UniProt P10827); experiment: ATG_THRa1_TRANS: Attagene TRANS-FACTORIAL HepG2 Assay for human Thyroid Receptor alpha (THRa1) (AID 2283014)
# Summary of the method: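 Measured here is mRNA from a GAL4-UAS reporter in transfected HepG2 cells carrying a Gal4-fused receptor, 24 h post-dose. DMSO served as negative control and baseline.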
# [5] = target: human Vitamin D Receptor (VDR), VDR (gene 7421) (UniProt P11473); experiment: ATG_VDR_TRANS: Attagene TRANS-FACTORIAL HepG2 Assay for human Vitamin D Receptor (VDR) (AID 2283022)
# Summary of the method: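 Multiplexed TRANS reporter in HepG2; 24 h treatment; reporter mRNA by RT-PCR plus capillary electrophoresis; upregulation scored relative to DMSO.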
# [6] = target: Nuclear receptor subfamily 1 group I member 2 (Homo sapiens) (UniProt O75469); experiment: ATG_PXR_TRANS: Attagene TRANS-FACTORIAL HepG2 Assay for human Pregnane X Receptor (PXR) (AID 2283008)
# Summary of the method: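 Measures mRNA induction of a GAL4-UAS-driven reporter in human HepG2 cells transiently expressing PXR fused to Gal4, following 24 h treatment. DMSO served as negative control and baseline.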
# [7] = target: human Retinoic Acid Receptor gamma (RARg), RARG (gene 5916) (UniProt P13631); experiment: ATG_RARg_TRANS: Attagene TRANS-FACTORIAL HepG2 Assay for human Retinoic Acid Receptor gamma (RARg) (AID 2283009);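 for AC50: AC50 is for reporter induction above DMSO meaning RARg activation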
# Summary of the method: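 Transient transfection of HepG2 with multi-reporter constructs, then 24 h chemical treatment. Total RNA isolated, reverse-transcribed, PCR-amplified, fluorescently labelled and resolved by capillary electrophoresis; activity scored as mRNA induction versus DMSO.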
# [8] = target: human RAR-related Orphan Receptor beta (RORb), RORB (gene 6096) (UniProt Q92753); experiment: ATG_RORb_TRANS: Attagene TRANS-FACTORIAL HepG2 Assay for human RAR-related Orphan Receptor beta (RORb) (AID 2283010);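 for AC50: potency for increased reporter mRNA meaning activation of RORb-Gal4 chimera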
# Summary of the method: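 Readout is reporter-gene mRNA induction, detected as fluorescence after RT-PCR and capillary electrophoresis, fitted for gain of signal against DMSO controls. Transiently transfected HepG2 liver cells carrying GAL4-UAS reporter constructs were treated for 24 hours.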
# [9] = target: human RAR-related Orphan Receptor gamma (RORg), RORC (gene 6097) (UniProt P51449); experiment: ATG_RORg_TRANS: Attagene TRANS-FACTORIAL HepG2 Assay for human RAR-related Orphan Receptor gamma (RORg) (AID 2283011);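 for AC50: potency for induction of reporter transcripts above DMSO so activators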
# Summary of the method: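 Chimeric RORg-Gal4 transactivation in transfected HepG2; 24 h exposure; RT-PCR/capillary electrophoresis readout of reporter mRNA, DMSO baseline.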
smiles,measurement,setting,value
CC(C)C=O,outcome,[6],inactive
same,outcome,[7],inactive
same,AC50,[8],inconclusive: 100 µM
same,outcome,[8],inactive
same,AC50,[9],inconclusive: 152 µM
same,AC50,[2],inconclusive: 23.4 µM
same,AC50,[3],inconclusive: 100 µM and active: 100 µM
same,AC50,[4],inconclusive: 100 µM
same,AC50,[5],inconclusive: 3.32 µM and inconclusive: 100 µM
COc1cc(/C=C/C(=O)CC(=O)/C=C/c2ccc(O)c(OC)c2)ccc1O,outcome,[6],inactive
same,outcome,[7],inactive
Cc1ccc2ccccc2n1,outcome,[1],inactive
same,outcome,[2],inactive
same,AC50,[3],inconclusive: 100 µM
FC(F)(F)C(F)(F)C(F)(F)CC1CO1 (centres undefined),outcome,[6],inactive
same,AC50,[7],inconclusive: 150 µM
same,AC50,[8],inconclusive: 150 µM
same,outcome,[9],inactive
same,outcome,[2],inactive
same,AC50,[3],inconclusive: 150 µM
O=C1OC2(c3ccccc31)c1cc(I)c(O)c(I)c1Oc1c2cc(I)c(O)c1I,AC50,[6],active: 5.08 µM and active: 15.4 µM
same,AC50,[7],inconclusive: 25 µM and inconclusive: 60 µM and inconclusive: 10.7 µM
same,AC50,[8],inconclusive: 4.96 µM
same,outcome,[8],inactive
same,AC50,[2],inconclusive: 25 µM and inconclusive: 16.4 µM
same,AC50,[3],inconclusive: 532 nM and inconclusive: 60 µM and inconclusive: 62.5 µM
same,AC50,[4],inconclusive: 25 µM
same,AC50,[5],inconclusive: 25 µM
FC(F)(F)C(F)(F)C(F)(F)C(F)(F)C(F)(F)C(F)(F)C(F)(F)Br,AC50,[6],inconclusive: 50 µM
same,AC50,[7],inconclusive: 50 µM
same,outcome,[7],inactive
same,AC50,[8],inconclusive: 50 µM
same,AC50,[9],inconclusive: 50 µM
same,AC50,[2],inconclusive: 50 µM
same,AC50,[3],inconclusive: 50 µM
same,AC50,[4],inconclusive: 50 µM
same,AC50,[5],inconclusive: 50 µM
FC(F)(F)C(F)(F)C(F)(F)N(C(F)(F)C(F)(F)C(F)(F)F)C(F)(F)C(F)(F)C(F)(F)F,AC50,[6],inconclusive: 50 µM
same,outcome,[7],inactive
same,AC50,[8],inconclusive: 50 µM
same,AC50,[9],inconclusive: 50 µM
same,AC50,[2],inconclusive: 50 µM
C=CC(C)(C)C,outcome,[6],inactive
same,AC50,[7],inconclusive: 99.5 µM
same,AC50,[8],inconclusive: 99.5 µM
same,outcome,[9],inactive
same,outcome,[2],inactive
same,AC50,[3],inconclusive: 15.9 µM
same,AC50,[4],inconclusive: 99.5 µM
C[C@@H](Oc1ccc(CNC(=O)c2cccnc2Oc2ccc3c(c2)OCO3)c(F)c1)C(=O)O,AC50,[1],active: 24.3 µM
same,AC50,[9],inconclusive: 100 µM
same,AC50,[5],inconclusive: 100 µM
FC(F)(F)C(F)(F)C(F)(F)C(F)(F)C(F)(F)C(F)(F)I,AC50,[6],inconclusive: 150 µM
same,AC50,[7],inconclusive: 150 µM
same,AC50,[8],inconclusive: 150 µM
same,outcome,[9],inactive
same,AC50,[2],inconclusive: 87.3 µM
same,AC50,[3],active: 91.3 µM
same,outcome,[3],inactive
same,AC50,[4],inconclusive: 150 µM and inconclusive: 5.99 µM
O=C(O)C(F)(OC(F)(F)C(F)(OC(F)(F)C(F)(F)C(F)(F)F)C(F)(F)F)C(F)(F)F (centres undefined),AC50,[6],inconclusive: 50 µM
same,outcome,[6],inactive
same,outcome,[8],inactive
same,AC50,[9],inconclusive: 50 µM and inconclusive: 150 µM
same,AC50,[3],active: 41.7 µM
same,AC50,[4],inconclusive: 50 µM and inconclusive: 150 µM
